Substitutions are numbered along the chain they refer to. These are yes or no findings as the source states them, for the method shown. In cells and extracts the contact can be indirect. Some entries that bind do so weakly or less than the wild type. Sequences can lack the tags named with a protein.
T1: HA–Vps41 (HEK293T) (human) (UniProt P49754)
T1 sequence: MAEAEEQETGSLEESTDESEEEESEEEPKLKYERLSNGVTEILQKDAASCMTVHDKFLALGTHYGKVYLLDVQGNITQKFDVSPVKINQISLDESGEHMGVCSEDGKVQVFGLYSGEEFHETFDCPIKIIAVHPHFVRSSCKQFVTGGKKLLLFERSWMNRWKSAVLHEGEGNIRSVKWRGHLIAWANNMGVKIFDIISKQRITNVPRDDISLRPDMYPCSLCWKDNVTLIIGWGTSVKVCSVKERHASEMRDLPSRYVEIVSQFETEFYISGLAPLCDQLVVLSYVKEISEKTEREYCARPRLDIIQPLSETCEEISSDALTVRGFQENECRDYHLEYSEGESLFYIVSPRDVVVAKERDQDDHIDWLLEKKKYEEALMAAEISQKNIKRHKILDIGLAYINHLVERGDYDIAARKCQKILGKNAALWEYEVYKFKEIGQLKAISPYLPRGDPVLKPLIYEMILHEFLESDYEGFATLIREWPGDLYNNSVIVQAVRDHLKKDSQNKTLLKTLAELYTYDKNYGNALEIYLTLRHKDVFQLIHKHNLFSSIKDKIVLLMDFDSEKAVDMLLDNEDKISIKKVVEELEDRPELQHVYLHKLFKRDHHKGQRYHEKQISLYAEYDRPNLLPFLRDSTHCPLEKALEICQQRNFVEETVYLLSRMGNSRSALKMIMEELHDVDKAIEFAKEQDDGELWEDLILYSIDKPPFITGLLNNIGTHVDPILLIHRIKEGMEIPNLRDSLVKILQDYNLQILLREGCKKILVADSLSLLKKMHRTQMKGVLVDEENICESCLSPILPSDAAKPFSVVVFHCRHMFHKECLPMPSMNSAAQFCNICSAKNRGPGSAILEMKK

The chains behind the UniProt entries cited, without tags or fusion partners.
UniProt Q9NVJ2: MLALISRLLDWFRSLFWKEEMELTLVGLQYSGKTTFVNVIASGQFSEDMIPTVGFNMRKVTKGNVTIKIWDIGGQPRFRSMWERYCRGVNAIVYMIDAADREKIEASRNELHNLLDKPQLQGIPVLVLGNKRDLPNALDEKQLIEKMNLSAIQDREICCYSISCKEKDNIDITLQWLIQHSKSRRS

T2: HA–Vps41-T146P (HEK293T) (human) (UniProt P49754)
T2 sequence: T1 sequence with T146P

B1: Myc–Vps18 (protein, UniProt Q9P253 1-973)
chain: MASILDEYENSLSRSAVLQPGCPSVGIPHSGYVNAQLEKEVPIFTKQRIDFTPSERITSLVVSSNQLCMSLGKDTLLRIDLGKANEPNHVELGRKDDAKVHKMFLDHTGSHLLIALSSTEVLYVNRNGQKVRPLARWKGQLVESVGWNKALGTESSTGPILVGTAQGHIFEAELSASEGGLFGPAPDLYFRPLYVLNEEGGPAPVCSLEAERGPDGRSFVIATTRQRLFQFIGRAAEGAEAQGFSGLFAAYTDHPPPFREFPSNLGYSELAFYTPKLRSAPRAFAWMMGDGVLYGALDCGRPDSLLSEERVWEYPEGVGPGASPPLAIVLTQFHFLLLLADRVEAVCTLTGQVVLRDHFLEKFGPLKHMVKDSSTGQLWAYTERAVFRYHVQREARDVWRTYLDMNRFDLAKEYCRERPDCLDTVLAREADFCFRQRRYLESARCYALTQSYFEEIALKFLEARQEEALAEFLQRKLASLKPAERTQATLLTTWLTELYLSRLGALQGDPEALTLYRETKECFRTFLSSPRHKEWLFASRASIHELLASHGDTEHMVYFAVIMQDYERVVAYHCQHEAYEEALAVLARHRDPQLFYKFSPILIRHIPRQLVDAWIEMGSRLDARQLIPALVNYSQGGEVQQVSQAIRYMEFCVNVLGETEQAIHNYLLSLYARGRPDSLLAYLEQAGASPHRVHYDLKYALRLCAEHGHHRACVHVYKVLELYEEAVDLALQVDVDLAKQCADLPEEDEELRKKLWLKIARHVVQEEEDVQTAMACLASCPLLKIEDVLPFFPDFVTIDHFKEAICSSLKAYNHHIQELQREMEEATASAQRIRRDLQELRGRYGTVEPQDKCATCDFPLLNRPFYLFLCGHMFHADCLLQAVRPGLPAYKQARLEELQRKLGAAPPPAKGSARAKEAEGGAATAGPSREQLKADLDELVAAECVYCGELMIRSIDRPFIDPQRYEEEQLSWL
B2: endogenous Vps11 (protein, UniProt Q9H270 1-941)
chain: MAAYLQWRRFVFFDKELVKEPLSNDGAAPGATPASGSAASKFLCLPPGITVCDSGRGSLVFGDMEGQIWFLPRSLQLTGFQAYKLRVTHLYQLKQHNILASVGEDEEGINPLVKIWNLEKRDGGNPLCTRIFPAIPGTEPTVVSCLTVHENLNFMAIGFTDGSVTLNKGDITRDRHSKTQILHKGNYPVTGLAFRQAGKTTHLFVVTTENVQSYIVSGKDYPRVELDTHGCGLRCSALSDPSQDLQFIVAGDECVYLYQPDERGPCFAFEGHKLIAHWFRGYLIIVSRDRKVSPKSEFTSRDSQSSDKQILNIYDLCNKFIAYSTVFEDVVDVLAEWGSLYVLTRDGRVHALQEKDTQTKLEMLFKKNLFEMAINLAKSQHLDSDGLAQIFMQYGDHLYSKGNHDGAVQQYIRTIGKLEPSYVIRKFLDAQRIHNLTAYLQTLHRQSLANADHTTLLLNCYTKLKDSSKLEEFIKKKSESEVHFDVETAIKVLRQAGYYSHALYLAENHAHHEWYLKIQLEDIKNYQEALRYIGKLPFEQAESNMKRYGKILMHHIPEQTTQLLKGLCTDYRPSLEGRSDREAPGCRANSEEFIPIFANNPRELKAFLEHMSEVQPDSPQGIYDTLLELRLQNWAHEKDPQVKEKLHAEAISLLKSGRFCDVFDKALVLCQMHDFQDGVLYLYEQGKLFQQIMHYHMQHEQYRQVISVCERHGEQDPSLWEQALSYFARKEEDCKEYVAAVLKHIENKNLMPPLLVVQTLAHNSTATLSVIRDYLVQKLQKQSQQIAQDELRVRRYREETTRIRQEIQELKASPKIFQKTKCSICNSALELPSVHFLCGHSFHQHCFESYSESDADCPTCLPENRKVMDMIRAQEQKRDLHDQFQHQLKCSNDSFSVIADYFGRGVFNKLTLLTDPPTARLTSSLEAGLQRDLLMHSRRGT
B3: endogenous Vps33a (protein, UniProt Q96AX1 1-596)
chain: MAAHLSYGRVNLNVLREAVRRELREFLDKCAGSKAIVWDEYLTGPFGLIAQYSLLKEHEVEKMFTLKGNRLPAADVKNIIFFVRPRLELMDIIAENVLSEDRRGPTRDFHILFVPRRSLLCEQRLKDLGVLGSFIHREEYSLDLIPFDGDLLSMESEGAFKECYLEGDQTSLYHAAKGLMTLQALYGTIPQIFGKGECARQVANMMIRMKREFTGSQNSIFPVFDNLLLLDRNVDLLTPLATQLTYEGLIDEIYGIQNSYVKLPPEKFAPKKQGDGGKDLPTEAKKLQLNSAEELYAEIRDKNFNAVGSVLSKKAKIISAAFEERHNAKTVGEIKQFVSQLPHMQAARGSLANHTSIAELIKDVTTSEDFFDKLTVEQEFMSGIDTDKVNNYIEDCIAQKHSLIKVLRLVCLQSVCNSGLKQKVLDYYKREILQTYGYEHILTLHNLEKAGLLKPQTGGRNNYPTIRKTLRLWMDDVNEQNPTDISYVYSGYAPLSVRLAQLLSRPGWRSIEEVLRILPGPHFEERQPLPTGLQKKRQPGENRVTLIFFLGGVTFAEIAALRFLSQLEDGGTEYVIATTKLMNGTSWIEALMEKPF
B4: HA–hVps39 (HeLa) (protein, UniProt Q96JC1 1-886)
chain: MHDAFEPVPILEKLPLQIDCLAAWEEWLLVGTKQGHLLLYRIRKDVVPADVASPESGSCNRFEVTLEKSNKNFSKKIQQIHVVSQFKILVSLLENNIYVHDLLTFQQITTVSKAKGASLFTCDLQHTETGEEVLRMCVAVKKKLQLYFWKDREFHELQGDFSVPDVPKSMAWCENSICVGFKRDYYLIRVDGKGSIKELFPTGKQLEPLVAPLADGKVAVGQDDLTVVLNEEGICTQKCALNWTDIPVAMEHQPPYIIAVLPRYVEIRTFEPRLLVQSIELQRPRFITSGGSNIIYVASNHFVWRLIPVPMATQIQQLLQDKQFELALQLAEMKDDSDSEKQQQIHHIKNLYAFNLFCQKRFDESMQVFAKLGTDPTHVMGLYPDLLPTDYRKQLQYPNPLPVLSGAELEKAHLALIDYLTQKRSQLVKKLNDSDHQSSTSPLMEGTPTIKSKKKLLQIIDTTLLKCYLHTNVALVAPLLRLENNHCHIEESEHVLKKAHKYSELIILYEKKGLHEKALQVLVDQSKKANSPLKGHERTVQYLQHLGTENLHLIFSYSVWVLRDFPEDGLKIFTEDLPEVESLPRDRVLGFLIENFKGLAIPYLEHIIHVWEETGSRFHNCLIQLYCEKVQGLMKEYLLSFPAGKTPVPAGEEEGELGEYRQKLLMFLEISSYYDPGRLICDFPFDGLLEERALLLGRMGKHEQALFIYVHILKDTRMAEEYCHKHYDRNKDGNKDVYLSLLRMYLSPPSIHCLGPIKLELLEPKANLQAALQVLELHHSKLDTTKALNLLPANTQINDIRIFLEKVLEENAQKKRFNQVLKNLLHAEFLRVQEERILHQQVKCIITEEKVCMVCKKKIGNSAFARYPNGVVVHYFCSKEVNPADT

Columns and labels:
[1] = biological target: T1, HA–Vps41 (HEK293T) (human); experiment: co-IP; transfected HEK293T cell lysates (20 mM Tris-HCl pH 7.4, 150 mM NaCl, 0.5% NP-40, 1 mM sodium orthovanadate), immunoprecipitated with anti-HA
[2] = biological target: T2, HA–Vps41-T146P (HEK293T) (human); experiment: as above
GST–Arl8b = GST–Arl8b (UniProt Q9NVJ2); experiment: pull-down; GST proteins on glutathione-conjugated beads incubated with transfected HeLa cell lysates; immunoblot; only the target purified

| Binder | binding [1] | binding [2] | binding (GST–Arl8b) |
| --- | --- | --- | --- |
| B1 | binds | binds | – |
| B2 | – | binds | – |
| B3 | binds | binds | – |
| B4 | – | – | no binding |

Source: article PMC4432227
